# Measured values as given in the supplement of paper PMC8728848.
# The other results are listed elsewhere or left out.
# Tests used:
# Assay in all cases: glycan array binding signal (z-score within array); higher = stronger binding
# Details in all cases: glycan notation: IUPAC condensed, linker removed
# [1] = molecular target: GlcNAc(b1-3)Gal(b1-4)GlcNAc(b1-3)Gal(b1-4)GlcNAc(b1-3)Gal(b1-4)GlcNAc(b1-3)Gal(b1-4)GlcNAc(b1-2)[GlcNAc(b1-3)Gal(b1-4)GlcNAc(b1-3)Gal(b1-4)GlcNAc(b1-3)Gal(b1-4)GlcNAc(b1-3)Gal(b1-4)GlcNAc(b1-6)]Man(a1-6)[GlcNAc(b1-3)Gal(b1-4)GlcNAc(b1-3)Gal(b1-4)GlcNAc(b1-3)Gal(b1-4)GlcNAc(b1-3)Gal(b1-4)GlcNAc(b1-2)Man(a1-3)]Man(b1-4)GlcNAc(b1-4)[Fuc(a1-6)]GlcNAc
# Method in brief: (§1)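 The binding signal is a Z-score computed within each array. Data were drawn from 3228 arrays in the Consortium for Functional Glycomics database, restricted to those with a known protein sequence. Scores were averaged over arrays of the same protein sequence at different concentrations or buffers, and over linkers, and negative values can be taken as non-binding.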
# [2] = molecular target: GlcNAc(b1-3)Gal(b1-4)GlcNAc(b1-3)Gal(b1-4)GlcNAc(b1-3)GalNAc
# Method in brief: as §1
# [3] = molecular target: GlcNAc(b1-3)Gal(b1-4)GlcNAc(b1-3)GalNAc
# Method in brief: as §1
# [4] = molecular target: GlcNAc(b1-3)Gal(b1-4)GlcNAc(b1-3)[GlcNAc(b1-3)Gal(b1-4)GlcNAc(b1-3)]GalNAc
# Method in brief: as §1
# [5] = molecular target: GlcNAc(b1-3)Gal(b1-4)GlcNAc(b1-6)[Gal(b1-3)]GalNAc
# Method in brief: as §1
# [6] = molecular target: GlcNAc(b1-3)Gal(b1-4)GlcNAc(b1-6)[GlcNAc(b1-3)Gal(b1-3)]GalNAc
# Method in brief: as §1
# [7] = molecular target: GlcNAc(b1-3)Gal(b1-4)GlcNAc(b1-6)[GlcNAc(b1-3)]Gal(b1-4)GlcNAc
# Method in brief: as §1
# GlcNAc(b1-3)GalNAc = molecular target: GlcNAc(b1-3)GalNAc
# Method in brief: as §1
# GlcNAc(b1-3)Man = molecular target: GlcNAc(b1-3)Man
# Method in brief: as §1
# [8] = molecular target: GlcNAc(b1-3)[GlcNAc(b1-4)][GlcNAc(b1-6)]GlcNAc
# Method in brief: as §1
# [9] = molecular target: GlcNAc(b1-3)[GlcNAc(b1-6)]Gal(b1-4)GlcNAc
# Method in brief: as §1
# [10] = molecular target: GlcNAc(b1-3)[GlcNAc(b1-6)]GalNAc
# Method in brief: as §1
# [11] = molecular target: GlcNAc(b1-4)Gal(b1-4)GlcNAc
# Method in brief: as §1
# GlcNAc(b1-4)GlcNAc = molecular target: GlcNAc(b1-4)GlcNAc
# Method in brief: as §1
# [12] = molecular target: GlcNAc(b1-4)GlcNAc(b1-4)GlcNAc
# Method in brief: as §1
# [13] = molecular target: GlcNAc(b1-4)GlcNAc(b1-4)GlcNAc(b1-4)GlcNAc(b1-4)GlcNAc
# Method in brief: as §1
# [14] = molecular target: GlcNAc(b1-4)GlcNAc(b1-4)GlcNAc(b1-4)GlcNAc(b1-4)GlcNAc(b1-4)GlcNAc
# Method in brief: as §1
# [15] = molecular target: GlcNAc(b1-4)[GlcNAc(b1-6)]GalNAc
# Method in brief: as §1
# [16] = molecular target: GlcNAc(b1-6)Gal(b1-4)GlcNAc
# Method in brief: as §1
# GlcNAc(b1-6)GalNAc = molecular target: GlcNAc(b1-6)GalNAc
# Method in brief: as §1
# [17] = molecular target: GlcNAc6S(b1-3)Gal(b1-4)GlcNAc
# Method in brief: as §1
# Kdn(a2-3)Gal(b1-3)GalNAc = molecular target: Kdn(a2-3)Gal(b1-3)GalNAc
# Method in brief: as §1
# Kdn(a2-3)Gal(b1-3)GlcNAc = molecular target: Kdn(a2-3)Gal(b1-3)GlcNAc
# Method in brief: as §1
# Kdn(a2-3)Gal(b1-4)Glc = molecular target: Kdn(a2-3)Gal(b1-4)Glc
# Method in brief: as §1
# Kdn(a2-3)Gal(b1-4)GlcNAc = molecular target: Kdn(a2-3)Gal(b1-4)GlcNAc
# Method in brief: as §1
# [18] = molecular target: Kdn(a2-3)Gal(b1-4)[Fuc(a1-3)]GlcNAc
# Method in brief: as §1
# Kdn(a2-6)Gal(b1-4)GlcNAc = molecular target: Kdn(a2-6)Gal(b1-4)GlcNAc
# Method in brief: as §1
# [19] = molecular target: Man(a1-2)Man(a1-2)Man(a1-3)Man
# Method in brief: as §1
# [20] = molecular target: Man(a1-2)Man(a1-2)Man(a1-6)[Man(a1-3)]Man
# Method in brief: as §1
# Man(a1-2)Man(a1-3)Man = molecular target: Man(a1-2)Man(a1-3)Man
# Method in brief: as §1
binder,measurement,setting,value
"BT4246 (Bacteroides thetaiotaomicron), Q89ZX5 (protein) MGSSHHHHHHENLYFQGHMASDYLDVVPPEQPNIDDAMSSPTRALGFLYSCYGGVSTDLPSAYLGEINSTTDEYVLPYSWNTDGYWGAYAFNTASSTNQDWLWGTTYQYIGQCYLFLQKLENAGSDIASDAEKEQWRAECQFLVAYYHFATLRRYGPIPITDSYIPMDTPTSEYNGRFHFDYCVDWIANQLDEAAKVLPANRTVTNEWGRATSTIAKAVKARLLLYAASPLWNGSFPYPNWQNENFETPGYGKALVSNTYDKSKWERALAACQEALTLATTSGDRELYDDDEYYSRQSLNLPFVPGVADVEDNKEFLKNVMKMRYAVSTRESEGNKEIIWGLSNQFDFYSRYPLRILKKSDGTWHAGYSGVSPTLYTFEHFYTANGKLPEKDLDFTPSSEWFESAGISSREDIIKLNVGREPRFYAWMAFDGGDYGTKFAAGSPLKLEMRNSEMHGYNPSLFNRDHSVTGFLTQKFVDPVTEFYTAGGSTSGTSAPTILFRLAELYLNVAECHAALGNTQEAIDALNPVRERAGIPKLTLADITNNMTIKDWVHNERFVELWNEGHRFFDVRRWAEGAKYFGANKREGLNAEVQSPTFEEFNKRTTVDAPYVWENRMYLNPVFYNEVYKNPQMVQAPGY",glycan array binding signal (z-score),[1],0.439
same,glycan array binding signal (z-score),[2],0.83
same,glycan array binding signal (z-score),[3],-1.07
same,glycan array binding signal (z-score),[4],-1.39
same,glycan array binding signal (z-score),[5],-0.339
same,glycan array binding signal (z-score),[6],0.694
same,glycan array binding signal (z-score),[7],-0.322
same,glycan array binding signal (z-score),GlcNAc(b1-3)GalNAc,0.733
same,glycan array binding signal (z-score),GlcNAc(b1-3)Man,-0.227
same,glycan array binding signal (z-score),[8],-0.635
same,glycan array binding signal (z-score),[9],0.609
same,glycan array binding signal (z-score),[10],-0.647
same,glycan array binding signal (z-score),[11],-0.482
same,glycan array binding signal (z-score),GlcNAc(b1-4)GlcNAc,-0.318
same,glycan array binding signal (z-score),[12],-0.945
same,glycan array binding signal (z-score),[13],1.12
same,glycan array binding signal (z-score),[14],-1.28
same,glycan array binding signal (z-score),[15],-0.928
same,glycan array binding signal (z-score),[16],0.999
same,glycan array binding signal (z-score),GlcNAc(b1-6)GalNAc,0.147
same,glycan array binding signal (z-score),[17],-0.822
same,glycan array binding signal (z-score),Kdn(a2-3)Gal(b1-3)GalNAc,-0.164
same,glycan array binding signal (z-score),Kdn(a2-3)Gal(b1-3)GlcNAc,-0.04
same,glycan array binding signal (z-score),Kdn(a2-3)Gal(b1-4)Glc,0.592
same,glycan array binding signal (z-score),Kdn(a2-3)Gal(b1-4)GlcNAc,-1.15
same,glycan array binding signal (z-score),[18],0.086
same,glycan array binding signal (z-score),Kdn(a2-6)Gal(b1-4)GlcNAc,1.42
same,glycan array binding signal (z-score),[19],-0.66
same,glycan array binding signal (z-score),[20],0.128
same,glycan array binding signal (z-score),Man(a1-2)Man(a1-3)Man,-0.675

# In a second layout: entries from further up
binder	measurement	setting	value
BT4246 (Bacteroides thetaiotaomicron), Q89ZX5 (protein) MGSSHHHHHHENLYFQGHMASDYLDVVPPEQPNIDDAMSSPTRALGFLYSCYGGVSTDLPSAYLGEINSTTDEYVLPYSWNTDGYWGAYAFNTASSTNQDWLWGTTYQYIGQCYLFLQKLENAGSDIASDAEKEQWRAECQFLVAYYHFATLRRYGPIPITDSYIPMDTPTSEYNGRFHFDYCVDWIANQLDEAAKVLPANRTVTNEWGRATSTIAKAVKARLLLYAASPLWNGSFPYPNWQNENFETPGYGKALVSNTYDKSKWERALAACQEALTLATTSGDRELYDDDEYYSRQSLNLPFVPGVADVEDNKEFLKNVMKMRYAVSTRESEGNKEIIWGLSNQFDFYSRYPLRILKKSDGTWHAGYSGVSPTLYTFEHFYTANGKLPEKDLDFTPSSEWFESAGISSREDIIKLNVGREPRFYAWMAFDGGDYGTKFAAGSPLKLEMRNSEMHGYNPSLFNRDHSVTGFLTQKFVDPVTEFYTAGGSTSGTSAPTILFRLAELYLNVAECHAALGNTQEAIDALNPVRERAGIPKLTLADITNNMTIKDWVHNERFVELWNEGHRFFDVRRWAEGAKYFGANKREGLNAEVQSPTFEEFNKRTTVDAPYVWENRMYLNPVFYNEVYKNPQMVQAPGY	glycan array binding signal (z-score)	[9]	0.609
same	glycan array binding signal (z-score)	[10]	-0.647
